Reference: PMC6127144

The chains behind the UniProt entries cited, without tags or fusion partners. Where a name states a change or a piece, a line headed by the entry shows the natural chain unless it says otherwise. A line that says so, or that is headed by a name, gives the form on record, which may keep a tag or linker.
human plasma membrane Ca2+-ATPase 1, full-length human PMCA1d (P20020, form named): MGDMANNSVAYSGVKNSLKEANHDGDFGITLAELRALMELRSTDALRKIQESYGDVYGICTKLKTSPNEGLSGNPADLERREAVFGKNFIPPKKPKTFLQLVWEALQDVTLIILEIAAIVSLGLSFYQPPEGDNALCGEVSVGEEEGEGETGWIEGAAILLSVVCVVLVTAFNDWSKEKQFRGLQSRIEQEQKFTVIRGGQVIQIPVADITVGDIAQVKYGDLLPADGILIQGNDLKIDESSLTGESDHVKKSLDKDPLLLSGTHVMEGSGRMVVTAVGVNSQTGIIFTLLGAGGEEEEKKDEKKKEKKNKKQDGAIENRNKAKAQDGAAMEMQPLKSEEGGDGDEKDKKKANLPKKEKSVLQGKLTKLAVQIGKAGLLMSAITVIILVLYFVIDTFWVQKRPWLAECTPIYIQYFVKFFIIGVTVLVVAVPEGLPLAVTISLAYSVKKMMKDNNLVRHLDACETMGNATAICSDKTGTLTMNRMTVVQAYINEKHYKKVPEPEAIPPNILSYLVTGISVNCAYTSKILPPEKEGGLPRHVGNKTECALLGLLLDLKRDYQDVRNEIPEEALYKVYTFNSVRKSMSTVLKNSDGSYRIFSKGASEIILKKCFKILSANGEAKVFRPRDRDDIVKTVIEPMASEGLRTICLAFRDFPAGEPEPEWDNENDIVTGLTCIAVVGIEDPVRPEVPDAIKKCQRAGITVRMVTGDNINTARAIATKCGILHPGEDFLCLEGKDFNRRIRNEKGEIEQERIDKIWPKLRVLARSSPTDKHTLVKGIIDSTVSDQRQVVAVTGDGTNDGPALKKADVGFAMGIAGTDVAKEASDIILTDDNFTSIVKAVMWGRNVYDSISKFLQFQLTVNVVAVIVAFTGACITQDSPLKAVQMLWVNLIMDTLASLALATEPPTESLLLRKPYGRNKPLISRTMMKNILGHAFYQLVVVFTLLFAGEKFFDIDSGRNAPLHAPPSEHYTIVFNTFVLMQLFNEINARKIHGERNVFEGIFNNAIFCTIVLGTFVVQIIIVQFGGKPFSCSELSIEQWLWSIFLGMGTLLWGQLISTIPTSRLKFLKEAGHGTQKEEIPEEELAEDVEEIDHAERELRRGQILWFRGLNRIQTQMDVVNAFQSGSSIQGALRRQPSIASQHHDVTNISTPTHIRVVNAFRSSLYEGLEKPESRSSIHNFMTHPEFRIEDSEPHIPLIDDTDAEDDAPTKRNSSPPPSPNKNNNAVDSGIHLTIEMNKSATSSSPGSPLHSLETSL

Target: human plasma membrane Ca2+-ATPase 1, full-length human PMCA1d (human) (UniProt P20020)
Experiment: condition: only washing with DTAC-containing buffer; co-IP; detergent screening: purification of hPMCA1-FLAG-His8 on anti-FLAG M2 gel with DDM replaced by DTAC in washing and elution steps; subunit BASI detected by anti-BASI antibodies

With basigin (from UniProt P35613-2) the binding was “no binding”.

Results are given in words; binding and its absence hold for the method and conditions named. Binding seen in cells or lysates may run through a third protein.
